{"source": "PubChem BioAssay AID1347423", "about": "(Functional Genomics Laboratory (NCATS/FGL), 2020)", "note": "In all, about 52,000 sequences went through this assay and about 210 (0.4%) were called active.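 How the source made its calls: active means gene whose silencing raises cell survival under the drug, median off-target-corrected z-score across its silencing RNAs 2 or more; inactive means the rest.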 The list shows a part of the results.", "data": [{"experiment": "Resistance to Poly (ADP-Ribose) Polymerase inhibitor: Gene Identification via Genome-wide siRNA Screen", "settings": "mouse BRCA2 R2336H ES cells, olaparib, CellTiter-Glo viability; stronger effect = higher value", "outline": "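Genome-wide siRNA screen (3 siRNAs/gene, 20 nM) in mouse ES cells carrying hypomorphic BRCA2 R2336H; olaparib 500 nM added 48 h post-transfection, CellTiter-Glo viability 72 h later. Normalized to plate-median negative control; MAD z-scores, gene median, seed-adjusted.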", "values": [{"sequence": "GGUCUCCUGUACAGAAAAUTT against 1300010M03Rik", "z-score": "inactive: -0.145"}, {"sequence": "CGGUUUAACAGCAAGGGUATT against Sec61a1", "z-score": "inactive: 0.482"}, {"sequence": "CGACCAAGUCAUUGUUAAGTT against Igf2bp1", "z-score": "inactive: -0.706"}, {"sequence": "GGAGGCCGUAAUAUCUCCUTT against Krt1-13", "z-score": "inactive: 2.25"}, {"sequence": "GCCAAGUUAGAAGUUAGAATT against 2900055D03Rik", "z-score": "inactive: 0.206"}, {"sequence": "GGACAGUUAAUGUUUCUGUTT against C130052I12Rik", "z-score": "inactive: 0.696"}, {"sequence": "GGCCUAGAUAGAAUUCGUGTT against 6330403K07Rik", "z-score": "inactive: 0.974"}, {"sequence": "GGAUGAAGAGAAAGUUCUATT against Mak", "z-score": "inactive: 2.99"}, {"sequence": "GGUUUCCCUAGGAAAAAACTT against Klk9", "z-score": "inactive: 0.524"}, {"sequence": "GCUCUUCAGUUUAUAGUGUTT against Taar3", "z-score": "inactive: 0.116"}, {"sequence": "GGAUGACUGUAAGUUACGGTT against Mast2", "z-score": "inactive: 0.107"}, {"sequence": "GGGUCAUCAACUCUUACAATT against Gga3", "z-score": "inactive: 0.871"}, {"sequence": "GGUGAUGAAGGAUUUGAUUTT against Cbll1", "z-score": "inactive: 0.185"}, {"sequence": "GGCGAGGAUGGUAUUGAGATT against Sema3f", "z-score": "inactive: 0.343"}, {"sequence": "GGUGAUUUAGUUGUGUAAATT against Calcr", "z-score": "inactive: -0.00709"}, {"sequence": "GGGCUCUGAGAAAAGACAATT against 4921530L21Rik", "z-score": "inactive: -1.61"}, {"sequence": "GGGUGAGGGCAUUAGAGAUTT against E2f1", "z-score": "inactive: 0.927"}, {"sequence": "GGAAGAAAUACUACAGCCATT against Ptpn12", "z-score": "inactive: -0.919"}, {"sequence": "GCUGUGCAUAUGGUAUAUUTT against 2810468K05Rik", "z-score": "inactive: -0.0681"}, {"sequence": "GGCCAAAUAUUGAUCUUAATT against Rgs4", "z-score": "inactive: -1.04"}, {"sequence": "GCGAGCUAAUGUCACAUUCTT against Il17r", "z-score": "inactive: -1.64"}, {"sequence": "GGAAAUCCACAGAUUAAGATT against Stch", "z-score": "inactive: 1.12"}, {"sequence": "GGAAAACAUUAAGAAGGGCTT against Ctgf", "z-score": "inactive: 1.28"}, {"sequence": "GGUGUGUGGUGUUAAAAAATT against Mybph", "z-score": "inactive: 1.54"}, {"sequence": "GGGCCUCCAAUUUGUGGCUTT against Cd1d1", "z-score": "inactive: 0.57"}, {"sequence": "GGCCAGACACUACAGGUAATT against 2410004H02Rik", "z-score": "inactive: -0.68"}, {"sequence": "GCCCUACCUUGAAUCCCAUTT against Olfr532", "z-score": "inactive: -1.48"}, {"sequence": "GCCAGUCAUUCAGUAAAGUTT against C130067A03Rik", "z-score": "inactive: -1.71"}, {"sequence": "GGGAGAAGAUGUCCAUCAATT against 1700001L23Rik", "z-score": "inactive: -0.649"}]}]}
